PubChem BioAssay AID743121 | NCATS – 2013

Purpose: 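Genes whose silencing strengthens cell killing by camptothecin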 (primary screen)
Cell system: MDA-MB-231 cells, a human breast cancer line
Reagent: single siRNA against human genes, 20 nM siRNA (0.8 pmol per well)
Time to read-out: 120 h (drug added 48 h after transfection, read 72 h later)
Treatment: camptothecin 20 nM (about EC30) for 72 h; vehicle 0.1% DMSO in parallel plates
Detection: 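CellTiter-Glo ATP signal, scaled to control siRNA as percent viability; sensitisation given as log2 of untreated divided by camptothecin-treated viability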
Reading the numbers: log2 vehicle/camptothecin viability: higher = stronger sensitisation to camptothecin
Call rule: 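Each gene scored by redundant siRNA activity (RSA) over its individual siRNA ratios; a gene is called active at p < 0.001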
In all, the deposit lists about 26,000 reagents; shown is a part drawn at random. 167 of all reagents (0.63%) were called active. 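Calls are per gene from RSA p-values that are not deposited; an individual active-marked siRNA can sensitise only weakly.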 The numbers tell different reagents against one gene apart. Not all columns of the deposit are shown. Reagent sequences are not shown.

AHCYL1 (GeneID 10768) #1
- log2 vehicle/camptothecin viability: 0.265
- Outcome: inactive

AHCYL1 (GeneID 10768) #2
- log2 vehicle/camptothecin viability: -0.0593
- Outcome: inactive

AHCYL1 (GeneID 10768) #3
- log2 vehicle/camptothecin viability: 0.011
- Outcome: inactive

AHCYL1 (GeneID 10768) #4
- log2 vehicle/camptothecin viability: -0.237
- Outcome: inactive

KCNK6 (GeneID 9424) #1
- log2 vehicle/camptothecin viability: -0.0161
- Outcome: inactive

KCNK6 (GeneID 9424) #2
- log2 vehicle/camptothecin viability: -0.177
- Outcome: inactive

KCNK6 (GeneID 9424) #3
- log2 vehicle/camptothecin viability: 0.276
- Outcome: inactive

LECT2 (GeneID 3950) #1
- log2 vehicle/camptothecin viability: -0.0721
- Outcome: inactive

LECT2 (GeneID 3950) #2
- log2 vehicle/camptothecin viability: -0.404
- Outcome: inactive

LECT2 (GeneID 3950) #3
- log2 vehicle/camptothecin viability: -0.309
- Outcome: inactive

LECT2 (GeneID 3950) #4
- log2 vehicle/camptothecin viability: 0.315
- Outcome: inactive

CCNC (GeneID 892) #1
- log2 vehicle/camptothecin viability: -0.0591
- Outcome: inactive

CCNC (GeneID 892) #2
- log2 vehicle/camptothecin viability: -0.252
- Outcome: inactive

CCNC (GeneID 892) #3
- log2 vehicle/camptothecin viability: -0.28
- Outcome: inactive

CCNC (GeneID 892) #4
- log2 vehicle/camptothecin viability: 0.0312
- Outcome: inactive

PRMT6 (GeneID 55170) #1
- log2 vehicle/camptothecin viability: 0.0635
- Outcome: inactive

PRMT6 (GeneID 55170) #2
- log2 vehicle/camptothecin viability: -0.416
- Outcome: inactive

PRMT6 (GeneID 55170) #3
- log2 vehicle/camptothecin viability: -0.21
- Outcome: inactive

PRMT6 (GeneID 55170) #4
- log2 vehicle/camptothecin viability: -0.279
- Outcome: inactive

SLC26A3 (GeneID 1811) #1
- log2 vehicle/camptothecin viability: 0.622
- Outcome: inactive

SLC26A3 (GeneID 1811) #2
- log2 vehicle/camptothecin viability: -0.0639
- Outcome: inactive

SLC26A3 (GeneID 1811) #3
- log2 vehicle/camptothecin viability: -0.15
- Outcome: inactive

SLC26A3 (GeneID 1811) #4
- log2 vehicle/camptothecin viability: -0.159
- Outcome: inactive

ILDR1 (GeneID 286676) #1
- log2 vehicle/camptothecin viability: -0.507
- Outcome: inactive

ILDR1 (GeneID 286676) #2
- log2 vehicle/camptothecin viability: -0.335
- Outcome: inactive

ILDR1 (GeneID 286676) #3
- log2 vehicle/camptothecin viability: 0.0494
- Outcome: inactive

ILDR1 (GeneID 286676) #4
- log2 vehicle/camptothecin viability: -0.27
- Outcome: inactive

FBXO11 (GeneID 80204) #1
- log2 vehicle/camptothecin viability: 0.148
- Outcome: inactive

FBXO11 (GeneID 80204) #2
- log2 vehicle/camptothecin viability: -0.112
- Outcome: inactive

FBXO11 (GeneID 80204) #3
- log2 vehicle/camptothecin viability: -0.0524
- Outcome: inactive

FBXO11 (GeneID 80204) #4
- log2 vehicle/camptothecin viability: 0.2
- Outcome: inactive

PRKAG3 (GeneID 53632) #1
- log2 vehicle/camptothecin viability: -0.471
- Outcome: inactive

PRKAG3 (GeneID 53632) #2
- log2 vehicle/camptothecin viability: -0.171
- Outcome: inactive

PRKAG3 (GeneID 53632) #3
- log2 vehicle/camptothecin viability: -0.821
- Outcome: inactive

PRKAG3 (GeneID 53632) #4
- log2 vehicle/camptothecin viability: -0.32
- Outcome: inactive
